Measured values reported in patent publication US20230203142A1, “TREATMENT OF METABOLIC DISORDERS THROUGH THE TARGETING OF A NOVEL CIRCULATING HORMONE COMPLEX” (The President and Fellows of Harvard College, priority 2020, published 2023).

Target: GST-tagged NDPK (GST-NDPK)
Test: immunoprecipitation of GST-NDPK, Western blot

binding: binds
B1: recombinant human FABP4 (fatty acid binding protein 4) (protein)
chain: CDAFVGTWKLVSSENFDDYMKEVGVGFATRKVAGMAKPNMIISVNGDVITIKSESTFKNTEISFILGQEFDEVTADDRKVKSTITLDGGVLVHVQKWDGKSTTIKRKREDDKLVVECVMKGVTSTRVYERA

Results are given in words; binding and its absence hold for the method and conditions named. A result given as binding can be weak or reduced; the word gives no strength.
